Data as given in PubChem BioAssay AID1259264 (Sanger Institute, 2017).
This is an unselected part of 794 deposited reagents. Of all reagents, 15 (1.9%) got an active call. 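Calls rest on knock-down alone at z-score below -3; synergy scores with the three drugs do not decide them.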 Unmarked entries are inactive. Viability is capped at 1. Not given: the amount of reagent, the time to read-out.

Assay: 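Kinases whose loss cuts CL40 colorectal cancer cell survival, alone or with drugs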 (primary screen)
Cell system: CL40 human colorectal cancer cells
Reagents: siRNA pool against human genes
Conditions: DMSO, or an anchor drug: BYL719 at 1 µM, cetuximab at 5 µg/ml, or trametinib at 10 nM
Detection: 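Replicate-mean viability versus a non-targeting pool, robust z-score from control wells, and mean synergy with BYL719 1 µM, cetuximab 5 µg/ml or trametinib 10 nM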
Scale: robust z-score, siRNA alone and viability, siRNA alone: higher = more viable cells; synergy score with BYL719: higher = stronger combined killing with BYL719; synergy score with cetuximab: higher = stronger combined killing with cetuximab; synergy score with trametinib: higher = stronger combined killing with trametinib
Active means: 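a gene counts as essential when knock-down without drug gives a robust z-score below -3, meaning fewer cells; synergy scores play no part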
Meaning of the calls: active = essential (lowers viability alone); inactive = not essential

Gene | robust z-score, siRNA alone | viability, siRNA alone (fraction of control) | synergy score with BYL719 | synergy score with cetuximab | synergy score with trametinib
TGFBR3 | 0.168 | 0.973 | -0.137 | -0.00168 | 0.0119
HCK | 0.539 | 1 | -0.133 | -0.0174 | 0.0648
SYNCRIP | -0.0131 | 0.96 | 0.0754 | -0.0134 | 0.0888
BRDT | 0.539 | 1 | -0.156 | -0.0174 | -0.0297
PAK2 | -0.314 | 0.939 | -0.153 | 0.00139 | 0.0733
PKM | 0.539 | 1 | -0.0216 | 0.0723 | 0.0697
NME4 | -0.716 | 0.91 | -0.107 | -0.00687 | 0.0778
EPHA7 | 0.19 | 0.975 | -0.133 | -0.042 | 0.0376
DCLK2 | -0.0916 | 0.955 | -0.151 | -0.00929 | 0.0613
CDK6 | -0.421 | 0.931 | -0.109 | -0.085 | 0.121
CDADC1 | -1.34 | 0.865 | -0.131 | -0.0837 | 0.0599
EFNA4 | 0.539 | 1 | -0.0349 | -0.0174 | 0.123
PTPN11 | 0.539 | 1 | -0.0464 | -0.0174 | -0.0339
HK3 | 0.485 | 0.996 | -0.115 | -0.0212 | 0.0657
NME7 | 0.539 | 1 | -0.144 | -0.0174 | 0.032
FN3K | -0.089 | 0.955 | -0.0204 | -0.0617 | 0.101
BRD3 | 0.539 | 1 | -0.156 | -0.0174 | 0.0593
CDC42BPG | 0.539 | 1 | -0.117 | -0.0174 | 0.114
STK24 | 0.539 | 1 | -0.156 | -0.0174 | 0.145
BRSK2 | 0.333 | 0.985 | -0.151 | -0.0319 | 0.0326
RELA | 0.539 | 1 | -0.156 | 0.0914 | 0.112
SIK3 | -0.143 | 0.951 | -0.111 | -0.0655 | 0.0194

Look-ups from the list.
CDADC1, robust z-score, siRNA alone = -1.34
Value for RELA under “robust z-score, siRNA alone”: 0.539
Under “synergy score with BYL719”, DCLK2 has -0.151
For “viability, siRNA alone (fraction of control)”, BRDT is entered as 1
Result for SYNCRIP under “viability, siRNA alone (fraction of control)”: 0.96
BRSK2, synergy score with trametinib = 0.0326

Next records follow.
Gene | robust z-score, siRNA alone | viability, siRNA alone (fraction of control) | synergy score with BYL719 | synergy score with cetuximab | synergy score with trametinib
MAK | 0.539 | 1 | -0.148 | -0.0174 | -0.00473
CDK18 | -3.21 (active) | 0.731 | -0.102 | -0.063 | 0.104
LTK | 0.539 | 1 | -0.0401 | -0.0174 | -0.0798
SRP72 | 0.539 | 1 | -0.0987 | 0.0251 | 0.054
CASK | 0.539 | 1 | -0.0551 | -0.0174 | 0.14
HIPK4 | 0.539 | 1 | -0.156 | -0.0174 | -0.0275
TSSK6 | 0.414 | 0.991 | -0.0302 | 0.0401 | 0.137
SHPK | -0.568 | 0.921 | -0.0679 | -0.0181 | 0.0487
NEK3 | 0.539 | 1 | -0.15 | -0.0174 | 0.0826
CERK | 0.539 | 1 | -0.113 | -0.0174 | 0.0623
CPNE3 | 0.539 | 1 | -0.0555 | -0.0174 | 0.0767
MKNK1 | 0.539 | 1 | -0.0141 | -0.0174 | 0.185
PAK3 | 0.539 | 1 | 0.0634 | -0.0174 | 0.0652
MAP3K12 | 0.539 | 1 | -0.137 | -0.0174 | 0.0692
GCK | 0.539 | 1 | -0.0167 | 0.00792 | 0.17
STK31 | -0.101 | 0.954 | -0.169 | -0.0625 | 0.186
TRIB1 | 0.539 | 1 | -0.145 | -0.0174 | 0.123
NME3 | 0.539 | 1 | -0.132 | -0.0174 | 0.0509
MAP4K2 | 0.435 | 0.993 | 0.0147 | 0.0534 | 0.0527
NTRK1 | 0.539 | 1 | -0.0281 | -0.0174 | 0.0919
AKT2 | 0.539 | 1 | -0.112 | -0.0174 | 0.119
TAOK2 | 0.0473 | 0.965 | -0.147 | 0.00212 | 0.0625
NEK6 | 0.539 | 1 | -0.126 | -0.0174 | 0.0198
GK | 0.539 | 1 | -0.0916 | -0.0174 | -0.00112
IKBKE | 0.539 | 1 | -0.0446 | 0.00694 | 0.135
MAP3K13 | 0.467 | 0.995 | -0.0337 | -0.000295 | 0.0159
MAPK9 | 0.539 | 1 | -0.0454 | -0.0174 | 0.0704
PDK3 | 0.539 | 1 | -0.0103 | -0.0174 | 0.176
